Measurements published in PubChem BioAssay AID328 (DTP/NCI, 2004).
The list shows only some results of the screen, not a fair sample: it is rich in T/C values a quarter to a half above the control, in often repeated tests (any T/C) and in doses without a T/C. Further doses and runs are listed elsewhere. T/C: endpoint of the treated group in % of that of the vehicle group. Some doses have a count of surviving animals in place of a T/C: the source files T/C as zero there, which appears to mark a toxic dose or a test without result, not a measured value. Some doses without a T/C left all or most animals alive at the check, yet need not have been tolerated: survival well below the control is almost never listed, so the zero probably covers shortened survival too. Survivors were counted at the toxicity check, usually on the fifth day, unless a day is given; later deaths do not show. Schedules are NCI's codes, taken here to give the interval after Q, in days (D) or hours (H), and the number of doses after X. Additions like (4×) say how often a value occurs here. Some entries were tested several times; the results are listed from low to high. Where survival is the endpoint, the PubChem record calls one and a half times the control and up active, and a quarter to a half above the control has no call in these data; cut-offs in other NCI protocols can differ. Some T/C values are followed by the survivors on the day toxicity was checked, most often the fifth; without a count, all were alive then.

System: BDF1 mice, P388 leukemia ip, median survival T/C
Experiment: NCI In Vivo Anticancer Drug Screen. Data for tumor model P388 Leukemia (intraperitoneal) in B6D2F1 (BDF1) mice
Settings: T/C endpoint: median survival time, higher T/C = longer survival
Method in brief: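 T/C = treated-group survival ÷ vehicle-control survival; tumour transplanted into mice before dosing.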

[1] = dose: 100.0 mg/kg/injection, schedule: Q01DX009 (ip), vehicle: saline
[2] = dose: 100.0 mg/kg/injection, schedule: Q04DX003 (ip), vehicle: Klucel (hydroxypropylcellulose) (HPC)
[3] = dose: 100.0 mg/kg/injection, schedule: Q01DX001 (ip), vehicle: Klucel (hydroxypropylcellulose) (HPC)
[4] = dose: 200.0 mg/kg/injection, schedule: Q01DX001 (ip), vehicle: Klucel (hydroxypropylcellulose) (HPC)
[5] = dose: 25.0 mg/kg/injection, schedule: Q01DX009 (ip), vehicle: water
[6] = dose: 400.0 mg/kg/injection, schedule: Q04DX003 (ip), vehicle: saline
[7] = dose: 400.0 mg/kg/injection, schedule: Q01DX009 (ip), vehicle: saline
[8] = dose: 50.0 mg/kg/injection, schedule: Q01DX009 (ip), vehicle: water
[9] = dose: 100.0 mg/kg/injection, schedule: Q01DX009 (ip), vehicle: water
[10] = dose: 9.0 mg/kg/injection, schedule: Q01DX009 (ip), vehicle: saline
[11] = dose: 12.0 mg/kg/injection, schedule: Q01DX009 (ip), vehicle: saline

CC(CN(C)C)CN1c2ccccc2Sc2ccccc21 (centres undefined)
T/C (dose: 12.5 mg/kg/injection, schedule: Q01DX009 (ip), vehicle: saline with Tween-80): 131 % of control
T/C (dose: 25.0 mg/kg/injection, schedule: Q04DX003 (ip), vehicle: saline with Tween-80): 126 % of control
survivor count (dose: 33.0 mg/kg/injection, schedule: Q04DX003 (ip), vehicle: saline with Tween-80): 6 of 6
survivor count (dose: 50.0 mg/kg/injection, schedule: Q01DX009 (ip), vehicle: saline with Tween-80): 3 of 6
survivor count (dose: 50.0 mg/kg/injection, schedule: Q01DX009 (ip), vehicle: saline): 3 of 6
survivor count (dose: 100.0 mg/kg/injection, schedule: Q01DX009 (ip), vehicle: saline with Tween-80): 1 of 6
survivor count [1]: 0 of 6
survivor count [2]: 0 of 6

CCOC(=O)Nc1cc2c(c(N)n1)N=C(CN(C)c1ccc(OC)cc1)CN2
survivor count [3]: 1 of 6
survivor count [4]: 0 of 5

CC(=O)OCC(=O)[C@@]1(O)CC[C@H]2[C@@H]3CCC4=CC(=O)CC[C@]4(C)[C@H]3C(=O)C[C@@]21C
survivor count (dose: 400.0 mg/kg/injection, schedule: Q04DX003 (ip), vehicle: saline with Tween-80): 6 of 6

Cc1[nH]ccc2c(C)c3nc4ccccc4c3cc12
T/C (dose: 2.06 mg/kg/injection, schedule: Q01DX009 (ip), vehicle: saline with Tween-80): 145 % of control
T/C (dose: 16.5 mg/kg/injection, schedule: Q01DX009 (ip), vehicle: saline with Tween-80): 145 % of control

COc1ccc(C=Nc2ccc(OC(C)=O)cc2)cc1
T/C (dose: 100.0 mg/kg/injection, schedule: Q01DX009 (ip), vehicle: other): 136 % of control

COc1cc(C(=O)NCC2(C)OC3(OC(=O)C2O)C(=O)N/C(=C(\C=O)C(C)=O)OC3C(O)C2CN2C(C)=O)c2cccc(C)c2c1 (centres undefined)
survivor count (dose: 0.2 mg/kg/injection, schedule: Q01DX010 (ip), vehicle: alkali diluted with saline): 6 of 6
survivor count (dose: 0.4 mg/kg/injection, schedule: Q01DX010 (ip), vehicle: alkali diluted with saline): 0 of 6
survivor count (dose: 0.8 mg/kg/injection, schedule: Q01DX010 (ip), vehicle: alkali diluted with saline): 0 of 6
survivor count (dose: 1.6 mg/kg/injection, schedule: Q01DX010 (ip), vehicle: alkali diluted with saline): 0 of 6
T/C (dose: 6.3 micrograms/kg/injection, schedule: Q01DX010 (ip), vehicle: other): 135 % of control

c1ccc(Cn2ccnc2C2OCCO2)cc1
survivor count [5]: 6 of 6
survivor count (dose: 200.0 mg/kg/injection, schedule: Q04DX003 (ip), vehicle: water): 2 of 6

CC(=O)OC(C)(C)/C=C/C(=O)[C@](C)(O)[C@H]1[C@H](O)C[C@@]2(C)[C@@H]3CC=C4[C@@H](C=C(O)C(=O)C4(C)C)[C@]3(C)C(=O)C[C@]12C
T/C (dose: 4.0 mg/kg/injection, schedule: Q01DX009 (ip), vehicle: saline): 135 % of control

C1CC[CH]([Sn]([CH]2CCCCC2)[CH]2CCCCC2)CC1
survivor count (dose: 3.12 mg/kg/injection, schedule: Q01DX009 (ip), vehicle: saline with Tween-80): 2 of 3

Cc1c2ccc3ccccc3c2c[n+]2ccccc12
survivor count (dose: 20.0 mg/kg/injection, schedule: Q01DX009 (ip), vehicle: saline with Tween-80): 4 of 6

COc1ccc(/C=C/C(=O)c2ccc(OC)c(OC)c2)cc1O
survivor count (dose: 100.0 mg/kg/injection, schedule: Q04DX003 (ip), vehicle: saline): 6 of 6
survivor count (dose: 200.0 mg/kg/injection, schedule: Q04DX003 (ip), vehicle: saline): 6 of 6
survivor count [6]: 6 of 6

CCOC(=S)S
survivor count [7]: 2 of 6

CC(=O)N(C)c1cccc(C(=O)O)c1
survivor count (dose: 50.0 mg/kg/injection, schedule: Q01DX001 (ip), vehicle: Klucel (hydroxypropylcellulose) (HPC)): 6 of 6
survivor count [3]: 6 of 6
survivor count [4]: 6 of 6

CC#CCOCC1CO1 (centres undefined)
T/C (dose: 44.0 mg/kg/injection, schedule: Q01DX009 (ip), vehicle: saline with Tween-80): 130 % of control
T/C [1]: 129 % of control
survivor count (dose: 150.0 mg/kg/injection, schedule: Q01DX009 (ip), vehicle: saline with Tween-80): 0 of 6
survivor count (dose: 200.0 mg/kg/injection, schedule: Q01DX009 (ip), vehicle: saline): 3 of 6
survivor count [7]: 0 of 6
survivor count [6]: 6 of 6

C/C(=N/N(C)C)c1nc(N)nc(N)c1-c1ccc(Cl)cc1
survivor count (dose: 200.0 mg/kg/injection, schedule: Q01DX001 (ip), vehicle: saline with Tween-80): 0 of 6
survivor count (dose: 400.0 mg/kg/injection, schedule: Q01DX001 (ip), vehicle: saline with Tween-80): 0 of 6

C[C@@H]1C[C@@]2(C)[C@@H](CC[C@@H]3[C@@H]2CC[C@]2(C)OC(=O)CC[C@@H]32)CC1=O
T/C (dose: 400.0 mg/kg/injection, schedule: Q04DX003 (ip), vehicle: alcohol): 125 % of control
survivor count [6]: 6 of 6

CC(=O)N/N=C(/C)C(=O)O
T/C [5]: 88, 90 [4 of 6 alive], 105, 116 % of control
T/C [8]: 104 [5 of 6 alive], 105 [5 of 6 alive], 129 % of control
survivor count [8]: 6 of 6
T/C [9]: 88 [4 of 6 alive], 111 [5 of 6 alive], 129 % of control
survivor count [9]: 3 of 6
survivor count (dose: 200.0 mg/kg/injection, schedule: Q01DX009 (ip), vehicle: water): 1 of 6 and 3 of 6

COc1ccc(CCC(C)=O)cc1
survivor count (dose: 200.0 mg/kg/injection, schedule: Q01DX009 (ip), vehicle: Klucel (hydroxypropylcellulose) (HPC)): 3 of 6

CN(C)P(Cl)(Cc1ccccc1)(c1ccccc1)c1ccccc1
T/C (dose: 6.0 mg/kg/injection, schedule: Q01DX009 (ip), vehicle: saline): 126 % of control
T/C [10]: 127 % of control
survivor count [10]: 5 of 6
T/C [11]: 130 % of control [4 of 6 alive]
survivor count [11]: 0 of 6 (2×)
survivor count (dose: 18.0 mg/kg/injection, schedule: Q01DX009 (ip), vehicle: saline): 0 of 6 (2×)

CCN(CC)N=Nc1ccccc1-c1nc(N)c2ccccc2n1
T/C (dose: 12.5 mg/kg/injection, schedule: Q04DX003 (ip), vehicle: Klucel (hydroxypropylcellulose) (HPC)): 136 % of control
T/C (dose: 25.0 mg/kg/injection, schedule: Q04DX003 (ip), vehicle: Klucel (hydroxypropylcellulose) (HPC)): 139 % of control

O=C(/C=C/c1ccc2c(c1)OCO2)c1ccc([N+](=O)[O-])cc1
survivor count [2]: 3 of 6
survivor count (dose: 200.0 mg/kg/injection, schedule: Q04DX003 (ip), vehicle: Klucel (hydroxypropylcellulose) (HPC)): 0 of 6

Nc1ncnc2c1ncn2C1OC(COP(=O)(O)O)C(O)C1O (centres undefined)
T/C (dose: 18.8 mg/kg/injection, schedule: Q03HX024 (ip), vehicle: saline): 127 % of control
T/C (dose: 37.5 mg/kg/injection, schedule: Q03HX016 (ip), vehicle: saline): 131 % of control
T/C (dose: 37.5 mg/kg/injection, schedule: Q03HX024 (ip), vehicle: saline): 131 % of control
T/C (dose: 75.0 mg/kg/injection, schedule: Q03HX016 (ip), vehicle: saline): 145 % of control
T/C (dose: 75.0 mg/kg/injection, schedule: Q03HX024 (ip), vehicle: saline): 148 % of control

CC1(C)N=C(N)N=C(N)N1c1cccc(CCCCc2ccc(S(=O)(=O)F)cc2)c1
T/C (dose: 4.12 mg/kg/injection, schedule: Q01DX009 (ip), vehicle: saline): 130 % of control
T/C (dose: 6.25 mg/kg/injection, schedule: Q01DX009 (ip), vehicle: saline): 125 % of control
T/C (dose: 8.25 mg/kg/injection, schedule: Q01DX009 (ip), vehicle: saline): 145 % of control
T/C (dose: 12.5 mg/kg/injection, schedule: Q01DX009 (ip), vehicle: saline): 129, 136, 145 % of control
T/C (dose: 18.75 mg/kg/injection, schedule: Q01DX009 (ip), vehicle: saline): 131 % of control
survivor count (dose: 25.0 mg/kg/injection, schedule: Q01DX009 (ip), vehicle: saline): 3 of 6
